Laboratory results from the supplement of paper PMC10849652.
The other results are listed elsewhere or left out.

Protein sequences, listed by entry. Tags and fused reporters are not part of them. Lines headed by an entry give the natural chain unless they say otherwise; changes in a name come on top.
UniProt Q9GZQ3, whole entry, looked up: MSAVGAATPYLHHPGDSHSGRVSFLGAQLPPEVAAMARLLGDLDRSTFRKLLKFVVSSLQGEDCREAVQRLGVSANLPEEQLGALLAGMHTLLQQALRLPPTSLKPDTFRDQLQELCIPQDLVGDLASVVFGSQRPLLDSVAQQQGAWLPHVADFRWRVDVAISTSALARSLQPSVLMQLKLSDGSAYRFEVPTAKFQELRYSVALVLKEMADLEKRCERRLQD
UniProt Q5TZA2: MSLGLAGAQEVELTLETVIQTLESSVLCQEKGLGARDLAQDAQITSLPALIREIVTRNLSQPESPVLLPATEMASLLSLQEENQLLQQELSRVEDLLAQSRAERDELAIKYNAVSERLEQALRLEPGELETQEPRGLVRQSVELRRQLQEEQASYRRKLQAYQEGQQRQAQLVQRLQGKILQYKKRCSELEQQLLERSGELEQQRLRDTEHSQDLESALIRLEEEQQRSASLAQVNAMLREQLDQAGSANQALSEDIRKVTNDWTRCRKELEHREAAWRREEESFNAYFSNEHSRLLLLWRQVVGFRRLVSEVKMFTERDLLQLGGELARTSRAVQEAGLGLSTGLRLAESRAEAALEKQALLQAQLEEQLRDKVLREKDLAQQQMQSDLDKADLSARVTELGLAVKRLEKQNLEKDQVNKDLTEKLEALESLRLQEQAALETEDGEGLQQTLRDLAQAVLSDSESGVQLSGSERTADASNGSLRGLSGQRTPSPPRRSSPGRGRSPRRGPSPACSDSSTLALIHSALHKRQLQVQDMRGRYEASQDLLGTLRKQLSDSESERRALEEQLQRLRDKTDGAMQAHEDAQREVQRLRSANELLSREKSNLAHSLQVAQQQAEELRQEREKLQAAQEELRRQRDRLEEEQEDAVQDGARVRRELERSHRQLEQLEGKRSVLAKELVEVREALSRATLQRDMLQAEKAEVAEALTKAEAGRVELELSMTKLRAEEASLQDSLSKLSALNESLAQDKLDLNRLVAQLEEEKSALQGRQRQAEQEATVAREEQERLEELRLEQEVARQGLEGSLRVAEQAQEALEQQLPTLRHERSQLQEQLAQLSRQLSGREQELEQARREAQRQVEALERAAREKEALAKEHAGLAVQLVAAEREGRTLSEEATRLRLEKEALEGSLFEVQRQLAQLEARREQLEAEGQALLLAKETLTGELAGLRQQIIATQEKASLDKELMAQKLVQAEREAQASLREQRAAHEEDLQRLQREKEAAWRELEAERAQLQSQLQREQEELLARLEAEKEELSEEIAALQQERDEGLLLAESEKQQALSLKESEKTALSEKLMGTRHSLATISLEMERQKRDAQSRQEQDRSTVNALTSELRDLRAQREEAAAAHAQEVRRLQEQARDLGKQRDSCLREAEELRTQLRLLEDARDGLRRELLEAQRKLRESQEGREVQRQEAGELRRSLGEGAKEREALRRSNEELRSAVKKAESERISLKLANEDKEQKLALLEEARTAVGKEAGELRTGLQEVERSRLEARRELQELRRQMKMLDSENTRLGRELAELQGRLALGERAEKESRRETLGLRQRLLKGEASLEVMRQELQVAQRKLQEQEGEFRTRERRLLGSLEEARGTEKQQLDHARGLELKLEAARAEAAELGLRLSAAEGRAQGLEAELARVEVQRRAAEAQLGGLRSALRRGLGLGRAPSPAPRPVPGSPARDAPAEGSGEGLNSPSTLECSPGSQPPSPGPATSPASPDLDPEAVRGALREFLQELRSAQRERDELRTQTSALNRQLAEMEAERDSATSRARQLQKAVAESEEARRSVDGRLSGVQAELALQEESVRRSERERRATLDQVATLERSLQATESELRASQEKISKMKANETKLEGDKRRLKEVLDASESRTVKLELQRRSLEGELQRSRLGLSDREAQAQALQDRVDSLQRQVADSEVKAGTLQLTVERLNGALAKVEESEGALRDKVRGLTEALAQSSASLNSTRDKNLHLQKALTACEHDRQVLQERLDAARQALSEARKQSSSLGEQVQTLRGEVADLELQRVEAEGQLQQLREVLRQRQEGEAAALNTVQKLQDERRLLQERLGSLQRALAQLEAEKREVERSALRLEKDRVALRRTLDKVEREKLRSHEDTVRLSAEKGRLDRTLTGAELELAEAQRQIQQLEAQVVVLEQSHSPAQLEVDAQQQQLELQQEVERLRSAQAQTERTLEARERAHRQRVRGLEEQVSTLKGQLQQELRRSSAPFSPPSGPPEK
UniProt O75718: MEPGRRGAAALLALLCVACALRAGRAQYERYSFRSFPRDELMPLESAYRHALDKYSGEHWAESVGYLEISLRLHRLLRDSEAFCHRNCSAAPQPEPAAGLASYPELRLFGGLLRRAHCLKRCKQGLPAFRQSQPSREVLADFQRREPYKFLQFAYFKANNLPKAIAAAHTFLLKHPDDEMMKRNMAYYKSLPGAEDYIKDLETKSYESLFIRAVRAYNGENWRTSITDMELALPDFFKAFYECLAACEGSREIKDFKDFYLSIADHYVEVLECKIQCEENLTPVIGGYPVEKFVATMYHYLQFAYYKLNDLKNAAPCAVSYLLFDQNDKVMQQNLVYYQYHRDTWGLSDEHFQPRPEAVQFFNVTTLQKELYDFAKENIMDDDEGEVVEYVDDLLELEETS
UniProt Q9Y6N1: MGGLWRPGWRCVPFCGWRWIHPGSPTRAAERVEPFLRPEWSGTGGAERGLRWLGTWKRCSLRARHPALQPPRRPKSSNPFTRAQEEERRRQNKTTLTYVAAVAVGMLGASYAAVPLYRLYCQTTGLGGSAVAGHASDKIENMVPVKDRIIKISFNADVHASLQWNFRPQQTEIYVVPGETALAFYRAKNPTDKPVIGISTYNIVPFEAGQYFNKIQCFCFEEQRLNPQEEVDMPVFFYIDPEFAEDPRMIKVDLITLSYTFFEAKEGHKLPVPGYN
UniProt P14406, whole entry, looked up: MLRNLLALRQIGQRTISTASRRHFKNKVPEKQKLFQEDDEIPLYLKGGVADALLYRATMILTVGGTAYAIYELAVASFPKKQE
UniProt Q9NX08, whole entry, looked up: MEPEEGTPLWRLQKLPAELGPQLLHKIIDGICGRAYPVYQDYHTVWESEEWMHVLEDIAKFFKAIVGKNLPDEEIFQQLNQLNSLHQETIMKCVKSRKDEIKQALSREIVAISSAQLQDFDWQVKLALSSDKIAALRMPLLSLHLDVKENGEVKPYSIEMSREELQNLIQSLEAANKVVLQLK
UniProt P31327: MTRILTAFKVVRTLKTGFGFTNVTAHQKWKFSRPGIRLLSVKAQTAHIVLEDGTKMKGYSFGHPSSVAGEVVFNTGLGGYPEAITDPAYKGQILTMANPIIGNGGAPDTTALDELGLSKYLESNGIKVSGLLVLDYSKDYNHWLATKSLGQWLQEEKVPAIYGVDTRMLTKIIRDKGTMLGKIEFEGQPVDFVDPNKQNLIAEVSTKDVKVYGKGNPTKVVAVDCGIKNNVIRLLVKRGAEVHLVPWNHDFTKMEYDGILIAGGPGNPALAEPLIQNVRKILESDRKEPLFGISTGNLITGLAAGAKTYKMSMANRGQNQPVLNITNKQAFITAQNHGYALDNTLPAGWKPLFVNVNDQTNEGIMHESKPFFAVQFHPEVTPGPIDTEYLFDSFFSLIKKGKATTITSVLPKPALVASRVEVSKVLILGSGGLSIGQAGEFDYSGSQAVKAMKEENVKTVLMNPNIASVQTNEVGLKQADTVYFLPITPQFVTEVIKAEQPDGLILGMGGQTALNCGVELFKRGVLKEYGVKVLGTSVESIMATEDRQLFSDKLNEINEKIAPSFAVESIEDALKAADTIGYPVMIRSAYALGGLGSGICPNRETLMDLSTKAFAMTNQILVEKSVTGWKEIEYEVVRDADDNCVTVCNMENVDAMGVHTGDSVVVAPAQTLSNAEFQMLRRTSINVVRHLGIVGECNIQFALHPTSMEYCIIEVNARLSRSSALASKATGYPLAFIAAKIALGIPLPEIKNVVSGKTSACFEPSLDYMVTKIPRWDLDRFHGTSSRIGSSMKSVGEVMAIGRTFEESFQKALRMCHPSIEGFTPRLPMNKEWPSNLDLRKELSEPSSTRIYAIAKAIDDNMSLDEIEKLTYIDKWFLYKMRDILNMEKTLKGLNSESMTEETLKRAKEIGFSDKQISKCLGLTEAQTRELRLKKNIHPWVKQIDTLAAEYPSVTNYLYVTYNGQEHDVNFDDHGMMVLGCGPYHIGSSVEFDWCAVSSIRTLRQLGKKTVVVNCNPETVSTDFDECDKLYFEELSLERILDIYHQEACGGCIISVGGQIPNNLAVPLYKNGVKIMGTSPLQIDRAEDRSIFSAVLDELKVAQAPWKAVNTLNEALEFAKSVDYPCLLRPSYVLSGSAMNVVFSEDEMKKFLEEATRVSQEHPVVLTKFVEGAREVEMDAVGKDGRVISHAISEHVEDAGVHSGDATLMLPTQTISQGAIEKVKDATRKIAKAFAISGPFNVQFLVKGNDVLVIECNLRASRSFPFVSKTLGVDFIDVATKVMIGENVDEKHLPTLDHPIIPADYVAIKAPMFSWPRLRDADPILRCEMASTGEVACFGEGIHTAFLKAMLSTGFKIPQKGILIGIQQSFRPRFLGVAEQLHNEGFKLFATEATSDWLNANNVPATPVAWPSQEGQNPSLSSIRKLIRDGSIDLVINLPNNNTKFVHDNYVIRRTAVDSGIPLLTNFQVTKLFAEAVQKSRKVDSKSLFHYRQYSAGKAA
UniProt P61923: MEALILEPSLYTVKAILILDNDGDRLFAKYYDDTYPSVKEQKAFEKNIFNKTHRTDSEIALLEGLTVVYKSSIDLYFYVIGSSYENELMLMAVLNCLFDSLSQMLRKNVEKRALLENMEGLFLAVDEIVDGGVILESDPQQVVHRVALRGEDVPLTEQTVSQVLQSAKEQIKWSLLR
UniProt O75575: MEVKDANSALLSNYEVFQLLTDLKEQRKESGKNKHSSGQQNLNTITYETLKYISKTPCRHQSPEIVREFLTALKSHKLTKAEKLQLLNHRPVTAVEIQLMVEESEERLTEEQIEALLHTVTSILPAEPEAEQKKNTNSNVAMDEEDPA
UniProt Q9Y646: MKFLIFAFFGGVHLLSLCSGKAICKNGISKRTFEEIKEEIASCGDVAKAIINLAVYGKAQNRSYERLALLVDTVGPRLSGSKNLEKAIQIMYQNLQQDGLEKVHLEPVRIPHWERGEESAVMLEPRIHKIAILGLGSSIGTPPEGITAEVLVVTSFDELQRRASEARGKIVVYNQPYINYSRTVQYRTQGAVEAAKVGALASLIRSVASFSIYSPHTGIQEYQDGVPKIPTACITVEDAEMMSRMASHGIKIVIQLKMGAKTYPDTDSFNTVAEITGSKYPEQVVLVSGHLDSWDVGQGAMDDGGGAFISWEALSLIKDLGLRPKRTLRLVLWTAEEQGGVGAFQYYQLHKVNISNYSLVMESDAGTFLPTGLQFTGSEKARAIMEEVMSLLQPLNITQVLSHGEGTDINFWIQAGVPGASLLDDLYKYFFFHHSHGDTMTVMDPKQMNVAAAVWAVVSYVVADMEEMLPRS
UniProt Q9BRF8, whole entry, looked up: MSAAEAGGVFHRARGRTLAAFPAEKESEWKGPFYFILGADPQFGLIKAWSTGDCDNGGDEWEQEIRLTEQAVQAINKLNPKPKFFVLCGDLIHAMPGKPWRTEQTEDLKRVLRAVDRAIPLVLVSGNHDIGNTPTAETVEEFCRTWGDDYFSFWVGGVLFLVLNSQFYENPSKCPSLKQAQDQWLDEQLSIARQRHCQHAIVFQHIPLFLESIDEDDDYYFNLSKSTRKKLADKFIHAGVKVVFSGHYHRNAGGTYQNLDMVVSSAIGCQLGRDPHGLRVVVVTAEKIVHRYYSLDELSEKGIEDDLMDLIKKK
UniProt Q86X83, whole entry, looked up: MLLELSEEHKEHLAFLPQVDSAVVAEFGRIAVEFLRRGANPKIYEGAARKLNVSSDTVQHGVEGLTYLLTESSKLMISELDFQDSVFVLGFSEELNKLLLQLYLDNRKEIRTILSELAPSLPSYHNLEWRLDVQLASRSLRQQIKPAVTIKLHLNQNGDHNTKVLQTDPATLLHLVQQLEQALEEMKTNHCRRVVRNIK
UniProt P09669, whole entry, looked up: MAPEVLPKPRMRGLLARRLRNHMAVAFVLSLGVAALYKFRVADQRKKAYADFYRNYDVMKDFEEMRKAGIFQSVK
UniProt P68400, whole entry, looked up: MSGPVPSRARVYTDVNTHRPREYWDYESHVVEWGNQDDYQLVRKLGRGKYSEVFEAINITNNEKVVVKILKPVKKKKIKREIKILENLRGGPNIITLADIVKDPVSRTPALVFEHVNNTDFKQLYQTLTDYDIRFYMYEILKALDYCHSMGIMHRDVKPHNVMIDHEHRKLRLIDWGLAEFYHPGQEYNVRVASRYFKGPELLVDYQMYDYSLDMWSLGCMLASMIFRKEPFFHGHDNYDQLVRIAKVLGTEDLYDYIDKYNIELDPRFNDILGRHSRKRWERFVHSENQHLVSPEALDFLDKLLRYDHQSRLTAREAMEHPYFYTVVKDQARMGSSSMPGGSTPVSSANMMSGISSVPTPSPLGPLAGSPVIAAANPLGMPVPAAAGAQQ

How the values were obtained:
Test in all cases: log2 fold change, soluble protein after heating vs DMSO (PISA); higher = thermal stabilisation; K562 cells, 10 uM, 30 min; active = over 0.2 and 3.5 SD of the protein, either way, in both replicates (recomputed)
[1] = compound: CS(=O)(=O)c1ccc(-c2cnc(N)c(C(=O)Nc3ccccc3)n2)cc1
How it was run: (§1)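 K562 cells at 2×10^6 cells/mL were treated for 30 min with 10 μM compound, and aliquots were heated for 3 min over 48°C-58°C before pooling. Extraction used PBS with 0.5% NP-40 at 4°C, and soluble protein was the supernatant after 21,000xg for 90 min, measured by TMTpro 16plex LC-MS/MS with channel sums equalised. Thermal stability values, relative to control samples and from duplicates, are log2 fold changes.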

crizotinib = compound: C[C@@H](Oc1cc(-c2cnn(C3CCNCC3)c2)cnc1N)c1c(Cl)ccc(F)c1Cl [crizotinib]
How it was run: as §1

[2] = compound: C[C@@H]1COCCN1C2=NC(=NC(=C2)C3(CC3)S(=O)(=O)C)C4=C5C=CNC5=CC=C4
How it was run: as §1

[3] = compound: C[C@H](C1=CC=C(C=C1)C(=O)NC2=C3C=CNC3=NC=C2)N
How it was run: as §1

duvelisib = compound: C[C@H](Nc1ncnc2nc[nH]c12)c1cc2cccc(Cl)c2c(=O)n1-c1ccccc1 [duvelisib]
How it was run: as §1

gandotinib = compound: Cc1cc(Nc2cc(CN3CCOCC3)c3nc(C)c(Cc4ccc(Cl)cc4F)n3n2)n[nH]1 [gandotinib]
How it was run: as §1

tozasertib = compound: Cc1cc(Nc2cc(N3CCN(C)CC3)nc(Sc3ccc(NC(=O)C4CC4)cc3)n2)n[nH]1 [tozasertib]
How it was run: as §1

[4] = compound: Cc1cc(SCc2sc(-c3ccc(C(F)(F)F)cc3)nc2C)ccc1OCC(=O)O
How it was run: as §1

doramapimod = compound: Cc1ccc(-n2nc(C(C)(C)C)cc2NC(=O)Nc2ccc(OCCN3CCOCC3)c3ccccc23)cc1 [doramapimod]
How it was run: as §1

ispinesib = compound: Cc1ccc(C(=O)N(CCCN)[C@@H](c2nc3cc(Cl)ccc3c(=O)n2Cc2ccccc2)C(C)C)cc1 [ispinesib]
How it was run: as §1

bafetinib = compound: Cc1ccc(NC(=O)c2ccc(CN3CC[C@H](N(C)C)C3)c(C(F)(F)F)c2)cc1Nc1nccc(-c2cncnc2)n1 [bafetinib]
How it was run: as §1

[5] = compound: Cc1cccc(CC(=O)N2CCc3c2ccc(-c2cn(C)c4ncnc(N)c24)c3F)n1
How it was run: as §1

nilotinib = compound: Cc1cn(-c2cc(NC(=O)c3ccc(C)c(Nc4nccc(-c5cccnc5)n4)c3)cc(C(F)(F)F)c2)cn1 [nilotinib]
How it was run: as §1

[6] = compound: Cc1nc(Nc2n[nH]c3c2CN(C(=O)N[C@H](CN(C)C)c2ccccc2)C3(C)C)c2sccc2n1
How it was run: as §1

dasatinib = compound: Cc1nc(Nc2ncc(C(=O)Nc3c(C)cccc3Cl)s2)cc(N2CCN(CCO)CC2)n1 [dasatinib]
How it was run: as §1

[7] = compound: Cc1ncc(-c2ccnc(Nc3ccc(S(C)(=O)=O)cc3)n2)n1C(C)C
How it was run: as §1

[8] = compound: Cn1cc(-c2ccc3c(c2)CCN3C(=O)Cc2cccc(C(F)(F)F)c2)c2c(N)ncnc21
How it was run: as §1

[9] = compound: Cn1cc(-c2ccc3nnc(C(F)(F)c4ccc5ncccc5c4)n3n2)cn1
How it was run: as §1

tipifarnib = compound: Cn1cncc1[C@@](N)(c1ccc(Cl)cc1)c1ccc2c(c1)c(-c1cccc(Cl)c1)cc(=O)n2C [tipifarnib]
How it was run: as §1

mubritinib = compound: FC(F)(F)c1ccc(/C=C/c2nc(COc3ccc(CCCCn4ccnn4)cc3)co2)cc1 [mubritinib]
How it was run: as §1

Measured: log2 fold change

COMMD5 (UniProt Q9GZQ3)
inactive: [1] 0.03 | crizotinib -0.021 | [2] 0.143 | [3] -0.013 | duvelisib 0.049 | gandotinib -0.081 | tozasertib 0.022 | [4] 0.02 | doramapimod 0.039 | ispinesib 0.021 | bafetinib -0.002 | [5] 0.022 | nilotinib -0.022 | [6] -0.005 | dasatinib -0.013 | [7] -0.011 | [8] 0.032 | [9] 0.054 | tipifarnib -0.038 | mubritinib 0

CROCC (UniProt Q5TZA2)
inactive: [1] 0.053 | crizotinib 0.176 | [2] 0.061 | [3] 0.033 | duvelisib 0.035 | gandotinib -0.076 | tozasertib 0.016 | [4] 0.005 | doramapimod 0.03 | ispinesib 0.011 | bafetinib -0.041 | [5] 0.007 | nilotinib -0.052 | [6] 0.006 | dasatinib -0.001 | [7] 0.005 | [8] -0.004 | [9] 0.009 | tipifarnib -0.001 | mubritinib 0.106

CRTAP (UniProt O75718)
inactive: [1] 0.023 | crizotinib 0.085 | [2] -0.094 | [3] 0.139 | duvelisib -0.047 | gandotinib 0.061 | tozasertib 0.038 | [4] 0.061 | doramapimod 0.012 | ispinesib -0.008 | bafetinib 0.083 | [5] 0.019 | nilotinib 0.022 | [6] 0.061 | dasatinib 0.013 | [7] -0.027 | [8] -0.094 | [9] -0.004 | tipifarnib 0.07 | mubritinib -0.134

COX11 (UniProt Q9Y6N1)
inactive: [1] 0.039 | crizotinib 0.027 | [2] 0.065 | [3] -0.09 | duvelisib 0.119 | gandotinib -0.054 | tozasertib -0.012 | [4] -0.047 | doramapimod -0.106 | ispinesib -0.133 | bafetinib -0.011 | [5] -0.027 | nilotinib 0.008 | [6] -0.038 | dasatinib -0.098 | [7] 0.022 | [8] 0.064 | [9] -0.125 | tipifarnib 0.025 | mubritinib 0.026

COX7A2 (UniProt P14406)
inactive: [1] -0.076 | crizotinib 0.071 | [2] 0.108 | [3] -0.009 | duvelisib 0.069 | gandotinib 0.019 | tozasertib 0.021 | [4] -0.082 | doramapimod 0.016 | ispinesib 0.085 | bafetinib -0.083 | [5] -0.01 | nilotinib 0.005 | [6] 0.034 | dasatinib 0.039 | [7] -0.103 | [8] -0.051 | [9] 0.132 | tipifarnib 0.021 | mubritinib 0.097

COMMD8 (UniProt Q9NX08)
inactive: [1] 0.041 | crizotinib 0.01 | [2] 0.127 | [3] 0.03 | duvelisib 0.035 | gandotinib -0.002 | tozasertib 0.071 | [4] 0.172 | doramapimod -0.006 | ispinesib 0.037 | bafetinib 0.054 | [5] 0.041 | nilotinib -0.014 | [6] -0.094 | dasatinib -0.005 | [7] 0.081 | [8] 0.028 | [9] -0.027 | tipifarnib -0.04 | mubritinib 0.006

CPS1 isoform 3 (UniProt P31327)
inactive: [1] 0.05 | crizotinib 0.306 | [2] 0.014 | [3] 0.09 | duvelisib 0.123 | gandotinib -0.054 | tozasertib 0.164 | [4] -0.212 | doramapimod 0.007 | ispinesib -0.039 | bafetinib -0.011 | [5] -0.077 | nilotinib 0.029 | [6] -0.055 | dasatinib -0.029 | [7] 0.199 | [8] 0.158 | [9] 0.03 | tipifarnib 0.029 | mubritinib -0.19

COLGALT1 (UniProt Q8NBJ5)
inactive: [1] 0.038 | crizotinib 0.075 | [2] -0.038 | [3] 0.15 | duvelisib -0.104 | gandotinib 0.101 | tozasertib 0.042 | [4] 0.051 | doramapimod 0.081 | ispinesib -0.029 | bafetinib 0.094 | [5] 0.025 | nilotinib -0.008 | [6] 0.07 | dasatinib 0.003 | [7] -0.036 | [8] -0.101 | [9] -0.017 | tipifarnib 0.077 | mubritinib -0.089

COPS3 (UniProt Q9UNS2)
inactive: [1] 0.018 | crizotinib 0.003 | [2] 0.047 | [3] -0.023 | gandotinib -0.087 | [4] -0.006 | doramapimod -0.015 | ispinesib 0.024 | bafetinib -0.05 | [5] -0.027 | nilotinib 0.006 | [6] 0.004 | dasatinib -0.02 | [7] -0.012 | [8] 0.014 | [9] 0.04 | tipifarnib 0.004 | mubritinib 0.023

COPZ1 isoform 4 (UniProt P61923)
inactive: [1] -0.093 | crizotinib 0.074 | [2] 0.164 | [3] -0.122 | duvelisib 0.167 | gandotinib 0.057 | tozasertib 0.085 | [4] 0.016 | doramapimod 0.064 | ispinesib 0.223 | bafetinib 0.014 | [5] -0.095 | nilotinib -0.001 | [6] -0.044 | dasatinib 0.079 | [7] -0.031 | [8] 0.057 | [9] 0.163 | tipifarnib -0.057 | mubritinib 0.023

CRCP (UniProt O75575)
inactive: [1] -0.085 | crizotinib -0.073 | [2] 0.129 | [3] -0.069 | duvelisib -0.041 | gandotinib -0.023 | tozasertib 0.018 | [4] -0.009 | doramapimod 0.091 | bafetinib 0.007 | [5] 0.072 | nilotinib -0.093 | [6] -0.164 | dasatinib 0.063 | [7] -0.061 | [8] -0.082 | tipifarnib 0.026 | mubritinib 0.056

CPQ (UniProt Q9Y646)
inactive: [1] -0.013 | crizotinib -0.023 | [2] -0.001 | [3] 0.049 | gandotinib 0.055 | [4] -0.058 | doramapimod 0.03 | ispinesib 0.011 | [5] 0 | nilotinib 0.017 | [6] 0.053 | dasatinib 0.069 | [7] -0.046 | [8] 0.012 | [9] -0.025 | tipifarnib 0.031 | mubritinib 0.044
active: bafetinib -0.207

COPG1 (UniProt Q9Y678)
inactive: [1] -0.003 | crizotinib 0.039 | [2] 0.043 | [3] -0.004 | duvelisib -0.019 | gandotinib -0.047 | tozasertib 0.009 | [4] 0.025 | doramapimod -0.034 | ispinesib 0.122 | bafetinib 0.015 | [5] 0.023 | nilotinib -0.009 | [6] -0.002 | dasatinib -0.02 | [7] -0.009 | [8] -0.002 | [9] -0.029 | tipifarnib -0.011 | mubritinib 0.024

CPPED1 (UniProt Q9BRF8)
inactive: [1] 0.027 | crizotinib -0.019 | [2] 0.021 | [3] 0.011 | duvelisib 0 | gandotinib -0.031 | tozasertib -0.036 | [4] -0.064 | doramapimod -0.005 | ispinesib -0.005 | bafetinib 0.02 | [5] -0.012 | nilotinib -0.019 | [6] -0.024 | dasatinib 0.069 | [7] -0.009 | [8] 0.006 | [9] 0.033 | tipifarnib -0.025 | mubritinib 0.016

COMMD2 (UniProt Q86X83)
inactive: [1] -0.048 | crizotinib -0.13 | [2] 0.102 | [3] 0.037 | gandotinib -0.029 | [4] -0.018 | doramapimod -0.012 | ispinesib 0.014 | bafetinib 0.162 | [5] -0.066 | nilotinib -0.132 | [6] -0.069 | dasatinib -0.177 | [7] 0.097 | [8] -0.099 | [9] 0.057 | tipifarnib 0.025 | mubritinib 0.101

COX6C (UniProt P09669)
inactive: [1] -0.039 | crizotinib 0.003 | [2] 0.08 | [3] -0.072 | duvelisib 0.043 | gandotinib 0.014 | tozasertib -0.007 | [4] -0.014 | doramapimod -0.035 | ispinesib 0.04 | bafetinib 0.02 | [5] -0.02 | nilotinib 0.006 | [6] 0.045 | dasatinib 0.07 | [7] 0.02 | [8] 0.034 | [9] 0.07 | tipifarnib 0.008 | mubritinib 0.017

CSNK2A1 (UniProt P68400)
inactive: [1] 0.055 | crizotinib -0.04 | [2] 0.016 | [3] -0.17 | gandotinib 0.043 | [4] 0.005 | doramapimod -0.022 | ispinesib 0.029 | bafetinib -0.02 | [5] -0.073 | nilotinib 0.032 | [6] 0.019 | dasatinib -0.03 | [7] -0.055 | [8] -0.019 | [9] 0.035 | tipifarnib 0.03 | mubritinib -0.019

Copied from above (2 entries):
COLGALT1 (UniProt Q8NBJ5)
inactive: [1] 0.038 | crizotinib 0.075 | [2] -0.038 | [3] 0.15 | duvelisib -0.104 | gandotinib 0.101 | tozasertib 0.042 | [4] 0.051 | doramapimod 0.081 | ispinesib -0.029 | bafetinib 0.094 | [5] 0.025 | nilotinib -0.008 | [6] 0.07 | dasatinib 0.003 | [7] -0.036 | [8] -0.101 | [9] -0.017 | tipifarnib 0.077 | mubritinib -0.089

COPS3 (UniProt Q9UNS2)
inactive: [1] 0.018 | crizotinib 0.003 | [2] 0.047 | [3] -0.023 | gandotinib -0.087 | [4] -0.006 | doramapimod -0.015 | ispinesib 0.024 | bafetinib -0.05 | [5] -0.027 | nilotinib 0.006 | [6] 0.004 | dasatinib -0.02 | [7] -0.012 | [8] 0.014 | [9] 0.04 | tipifarnib 0.004 | mubritinib 0.023
